These are yes or no findings as the source states them, for the method shown. A result given as binding can be weak or reduced; the word gives no strength.
Assays:
[1] = biological target: recombinant cynomolgus monkey MSLN (purchased from Sino Biological) (cynomolgus monkey); assay: SPR
[2] = biological target: cynomolgus monkey MSLN on recombinant CHO cell line (cynomolgus monkey); assay: cELISA on CHO cells expressing cynomolgus monkey MSLN

binding [1]: binds
binding [2]: binds
B1: anti-MSLN scFv PRO1783 (scFv)
scFv: DIQMTQSPSSLSASVGDRVTITCQASQNIYSNLAWYQQKPGKAPKLLIYDASDLASGVPSRFSGSGSGTDFTLTISSLQPEDFATYYCQQVRSSSDIDNPFGTGTKVTVLGGGGGSGGGGSGGGGSGGGGSQVQLVESGGGLVQPGGSLRLSCAASGFSLSSYAMGWVRQAPGKGLEWIGYISTINNTYYASWAKGRFTISRDNSKNTVYLQMNSLRAEDTAVYYCAREIRSGWVDYGFSIWGQGTLVTVSS

From patent publication US20230203162A1
